The subject of the assay is MX-1 breast xenograft, intrarenal, nude mice, tumor weight. The assay is described as follows: NCI In Vivo Anticancer Drug Screen. Data for tumor model Human Mammary Carcinoma MX-1 Xenograft (intrarenal inoculation) in NU/NU BALB/C (nude) mice. Conditions: T/C endpoint: mean tumor weight change, higher T/C = larger tumour; for T/C: evaluated on day 11. The essentials:
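Transplantable tumors established in mice; animals dosed with compound or vehicle; survival or tumor size then recorded. Result reported as treated (T) divided by vehicle control (C).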

[1] abbreviates: dose: 2400.0 mg/kg/injection, schedule: Q04DX003 (sc), vehicle: saline.
Where [2] appears, read: dose: 200.0 mg/kg/injection, schedule: Q04DX003 (sc), vehicle: saline.

The list does not hold the whole screen: it is rich in T/C values a quarter to a half above the control, in often repeated tests (any T/C) and in doses without a T/C. Further doses and runs are listed elsewhere. T/C gives the treated animals as a percentage of the vehicle group. Schedules are NCI's codes, read here as Q, the interval in days (D) or hours (H), X, the number of doses. Some T/C values carry the count of animals alive at the toxicity check (mostly the fifth day); without a count, all were alive then. Some entries give survivors of the animals treated and no T/C: the source holds a T/C of zero for them, seemingly a mark for toxic or unscored doses. Survivors were counted at the toxicity check, usually on the fifth day, unless a day is given; later deaths do not show. Some doses were run more than once; their values stand side by side, smallest first.

In the case of `COc1c2c(c(O)c3c4c(c(C)cc13)C1OC3(C(OC)OC5CC(C)(O)C(OC6CC(C)(O)C(O)C(C)O6)C(C)O5)OC1C(OC)(O4)C31CO1)C(=O)C(O)CC2OC1CC(C)(O)C(OC(C)=O)C(C)O1` (stereo not given), the survivor count is 1 of 6 on day 11 and 2 of 6 on day 11 (dose: 0.5 mg/kg/injection, schedule: Q04DX003 (ip), vehicle: saline); 0 of 6 on day 11 (dose: 1.0 mg/kg/injection, schedule: Q04DX003 (ip), vehicle: saline). Turning to `O=c1c(O)c(O)c1=O.[NH2-].[NH2-].[NH2-].[NH2-].[NH2-].[Ru+5]`, where the note is “dose: 100.0 mg/kg/injection, schedule: Q04DX003 (ip), vehicle: suspension in saline”, the survivor count is 0 of 6 on day 11. Regarding `O=C(Oc1ccccc1)c1cc(O)c(O)c(O)c1`, the survivor count (dose: 600.0 mg/kg/injection, schedule: Q04DX003 (ip), vehicle: saline) is listed as 1 of 6 on day 11 and the survivor count (dose: 1200.0 mg/kg/injection, schedule: Q04DX003 (ip), vehicle: saline) is given as 0 of 6 on day 11. Consider `O=C/C(Cl)=C(/Cl)C(=O)O`, for which the survivor count (dose: 80.0 mg/kg/injection, schedule: Q01DX010 (sc), vehicle: saline with Tween-80) is given as 0 of 3 on day 11. `C#CCNC1=C(C)C(=O)C2=C(C1=O)[C@H](COC(N)=O)[C@]1(OC)[C@@H]3N[C@@H]3CN21`: the survivor count (dose: 15.0 mg/kg/injection, schedule: Q04DX003 (ip), vehicle: distilled water + Tween-80) was 0 of 6 on day 11; the survivor count (dose: 30.0 mg/kg/injection, schedule: Q04DX003 (ip), vehicle: distilled water + Tween-80) is reported as 0 of 6 on day 11; the survivor count (dose: 60.0 mg/kg/injection, schedule: Q04DX003 (ip), vehicle: distilled water + Tween-80) is reported as 0 of 6 on day 11. For `C=C1C(O)C2(O)OCC34C(CC5C(C)=CC(=O)C(O)C5(C)C23)OC(=O)C(OC(=O)C/C=C/CCCCCCCC)C14` (stereo not given), the survivor count runs as follows: (dose: 25.0 mg/kg/injection, schedule: Q04DX003 (ip), vehicle: saline + alcohol) 3 of 6 on day 11; (dose: 50.0 mg/kg/injection, schedule: Q04DX003 (ip), vehicle: saline + alcohol) 0 of 6 on day 11; (dose: 100.0 mg/kg/injection, schedule: Q04DX003 (ip), vehicle: saline + alcohol) 0 of 6 on day 11.

Consider `CN=C(NC)c1ccc(NC(=O)/C=C\c2ccc(/C=C/C(=O)Nc3ccc(C(=NC)NC)cc3)cc2)cc1`, for which the survivor count runs as follows: (dose: 12.5 mg/kg/injection, schedule: Q04DX003 (ip), vehicle: Klucel (hydroxypropylcellulose) (HPC)) 2 of 6 on day 11; (dose: 25.0 mg/kg/injection, schedule: Q04DX003 (ip), vehicle: Klucel (hydroxypropylcellulose) (HPC)) 0 of 6 on day 11; (dose: 50.0 mg/kg/injection, schedule: Q04DX003 (ip), vehicle: Klucel (hydroxypropylcellulose) (HPC)) 0 of 6 on day 11.

Regarding `CNc1n[n+](-c2ccccc2)no1`, the survivor count (dose: 150.0 mg/kg/injection, schedule: Q04DX003 (sc), vehicle: water) was 1 of 6 on day 11. For `CC1OC2CC(O)C1(O)C1=C2C(O)=C(C(N)=O)C(=N)C1=O` (stereo not given), the survivor count (dose: 5.0 mg/kg/injection, schedule: Q04DX003 (ip), vehicle: saline) is on record as 2 of 5 on day 11.

For the compound `O=NNc1ccccn1`, the T/C (dose: 8.0 mg/kg/injection, schedule: Q01DX010 (sc), vehicle: saline) is 145 % of control [2 of 2 alive on day 11]. On to `COc1cc(Cc2nccc3cc(OC)c(OC)cc23)c(C(C)=O)cc1OC`, for which, under setting [1], the survivor count is on record as 3 of 6 on day 11. In the case of `O=c1[nH]cc(F)c(=O)[nH]1`, the survivor count was 0 of 6 on day 11 (dose: 75.0 mg/kg/injection, schedule: Q04DX003 (ip), vehicle: saline) and 0 of 6 on day 11 (dose: 112.0 mg/kg/injection, schedule: Q04DX003 (ip), vehicle: saline). Turning to `NC(=S)N/N=C/c1ncccc1O`, the survivor count is listed as 2 of 6 on day 11 (dose: 600.0 mg/kg/injection, schedule: Q04DX003 (ip), vehicle: suspension in saline) and 0 of 6 on day 11 (dose: 1200.0 mg/kg/injection, schedule: Q04DX003 (ip), vehicle: suspension in saline).

As for `Nc1ncn(C2OC(CO)C(O)C2O)c(=O)n1` (stereo not given), under “dose: 1.5 mg/kg/injection, schedule: Q01DX010 (sc), vehicle: saline”, the survivor count was 1 of 3 on day 11.

As for `O=C1CN(c2ccccc2)C(=O)C1C(=O)Nc1ccc(Cl)c(Cl)c1` (stereo not given), the survivor count by setting is: (dose: 480.0 mg/kg/injection, schedule: Q04DX003 (ip), vehicle: saline with Tween-80) 0 of 6 on day 11; (dose: 960.0 mg/kg/injection, schedule: Q04DX003 (ip), vehicle: saline with Tween-80) 0 of 6 on day 11.

Consider `OC1(CSc2ccccc2)CCCCC1`, for which the T/C was 131 % of control (dose: 1200.0 mg/kg/injection, schedule: Q04DX003 (sc), vehicle: saline with Tween-80) and 130 % of control (dose: 2400.0 mg/kg/injection, schedule: Q04DX003 (sc), vehicle: saline with Tween-80). Turning to `CN(N=O)C(N)=O`, the T/C was 144 % of control (dose: 25.0 mg/kg/injection, schedule: Q04DX003 (sc), vehicle: saline); 142 % of control (dose: 50.0 mg/kg/injection, schedule: Q04DX003 (sc), vehicle: saline); 136 % of control under setting [2]. For the same compound, the survivor count is given as 2 of 6 on day 11 (dose: 100.0 mg/kg/injection, schedule: Q04DX003 (sc), vehicle: saline with Tween-80); 0 of 6 on day 11 (dose: 200.0 mg/kg/injection, schedule: Q04DX003 (sc), vehicle: saline with Tween-80); 0 of 6 on day 11 under setting [2]; 0 of 6 on day 11 (dose: 400.0 mg/kg/injection, schedule: Q04DX003 (sc), vehicle: saline with Tween-80). Regarding `CCN(CC)CCOCCO`, the T/C (dose: 300.0 mg/kg/injection, schedule: Q04DX003 (sc), vehicle: saline) was 129 % of control. The survivor count reads like this: (dose: 1200.0 mg/kg/injection, schedule: Q04DX003 (sc), vehicle: saline) 3 of 6 on day 11; under setting [1], 0 of 6 on day 11. Consider `O=C1C2C3C=CC(C2C(=O)N1CO)C1C2C(=O)N(CO)C(=O)C2C31` (stereo not given), for which the survivor count was 2 of 6 on day 11 (dose: 150.0 mg/kg/injection, schedule: Q04DX003 (ip), vehicle: water) and 0 of 6 on day 11 (dose: 300.0 mg/kg/injection, schedule: Q04DX003 (ip), vehicle: water). As for `O=C(NO)c1ccccc1`, the survivor count (dose: 800.0 mg/kg/injection, schedule: Q01DX010 (sc), vehicle: Klucel (hydroxypropylcellulose) (HPC)) is 0 of 3 on day 11.

With `CCOC1=Cc2c(oc3c(C(C)(C)C)cc(OCC)cc23)OC(C(C)(C)C)=C1`, the T/C by setting is: (dose: 150.0 mg/kg/injection, schedule: Q04DX003 (sc), vehicle: saline with Tween-80) 128 % of control; (dose: 600.0 mg/kg/injection, schedule: Q04DX003 (sc), vehicle: saline with Tween-80) 128 % of control. With `CO[C@@]12[C@@H]3N[C@@H]3CN1C1=C(C(=O)C(NCC3CCCO3)=C(C)C1=O)[C@@H]2COC(N)=O` (stereo not given in full), the survivor count runs as follows: (dose: 50.0 mg/kg/injection, schedule: Q04DX003 (ip), vehicle: distilled water + Tween-80) 0 of 6 on day 11; (dose: 100.0 mg/kg/injection, schedule: Q04DX003 (ip), vehicle: distilled water + Tween-80) 0 of 6 on day 11. Consider `O=C1c2cccc(NCCCNCCO)c2C(=O)c2cccc(NCCCNCCO)c21`, for which the survivor count runs as follows: (dose: 75.0 mg/kg/injection, schedule: Q04DX003 (ip), vehicle: acid diluted with saline) 1 of 6 on day 11; (dose: 150.0 mg/kg/injection, schedule: Q04DX003 (ip), vehicle: acid diluted with saline) 0 of 6 on day 11. `Cc1cc(=NO)cc(C)n1O`: the T/C (dose: 600.0 mg/kg/injection, schedule: Q04DX003 (sc), vehicle: distilled water + alcohol) was 127 % of control.

For the compound `Cc1cc(N)c2ccccc2[n+]1CCCCCCCCCC[n+]1c(C)cc(N)c2ccccc21`, for the setting “dose: 6.0 mg/kg/injection, schedule: Q01DX010 (ip), vehicle: dextrose”, the survivor count was 0 of 6 on day 11.

Regarding `CN(C)CCCOc1nc2c(c(=O)n(C)c(=O)n2C)n1C` (tested in a mixture with another compound), the survivor count (dose: 600.0 mg/kg/injection, schedule: Q04DX003 (ip), vehicle: Klucel (hydroxypropylcellulose) (HPC)) was 0 of 6 on day 11.

The record behind these values is PubChem BioAssay AID298 (DTP/NCI, 2004).
